Library compounds against nucleic acid targets

Source: the ROBIN nucleic acid binder screens (doi:10.1002/anie.202211358).

Targets, with sequences 5′ to 3′:
TPP: TPP riboswitch RNA three-way junction, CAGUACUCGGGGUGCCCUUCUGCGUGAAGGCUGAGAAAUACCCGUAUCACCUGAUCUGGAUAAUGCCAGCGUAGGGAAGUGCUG. About 24,000 compounds screened, about 160 hits.
PreQ1: PreQ1 riboswitch RNA pseudoknot, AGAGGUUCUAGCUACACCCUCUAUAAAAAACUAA. From B. subtilis. About 24,000 compounds screened, about 170 hits.
SAM-II: SAM-II riboswitch RNA pseudoknot, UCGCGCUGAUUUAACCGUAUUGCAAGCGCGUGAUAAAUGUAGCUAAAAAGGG. About 21,000 compounds screened, about 200 hits.

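Compounds were printed on reactive glass slides in duplicate spots, a dye-labelled oligonucleotide was laid over them, and the fluorescence left after washing was read. For the PreQ1, TPP and SAM-II riboswitches the laboratory earlier reported (doi:10.1038/s41467-019-09493-3) 1 µM RNA, 2 h, and a rule that included a mean Z-score above 3 (spot signal-to-noise against the whole library), a score well above that on a control array, and duplicate spots agreeing (coefficient of variation under 100). The data file gives only the calls; its cut-offs may differ, and compounds hitting several targets are kept. A missing hit is not proof of no binding, and a hit is not a measured affinity.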 Key: Y = hit, N = tested without a hit. This is an unselected part of the compounds tested. A target missing from an entry has no call listed here.

{"structure": "Clc1ccc(Nc2nc(-c3ccccn3)cs2)nc1", "TPP": "N", "PreQ1": "N", "SAM-II": "N"}
{"structure": "Cc1ccccc1Nc1c(-c2ccco2)nc2ccc(Cl)cn12", "TPP": "N", "PreQ1": "N", "SAM-II": "N"}
{"structure": "COc1ccc(C2=C(C)C(Nc3cc(F)ccc3F)=NS2(=O)=O)cc1", "TPP": "N", "PreQ1": "N"}
{"structure": "CCOC(=O)c1ccc2ncc(C(=O)OCC)c(NCc3cccnc3)c2c1", "TPP": "N", "PreQ1": "N", "SAM-II": "N"}
{"structure": "COC(=O)c1ccc(Nc2cc(C)nc3ncnn23)cc1", "TPP": "N", "PreQ1": "N", "SAM-II": "N"}
{"structure": "CCN1CCC(CC(=O)NCc2n[nH]c(N)n2)CC1", "TPP": "N", "PreQ1": "N", "SAM-II": "N"}
{"structure": "CCCCc1ccc(-n2nc3ccc(N)cc3n2)cc1", "TPP": "N", "PreQ1": "N", "SAM-II": "Y"}
{"structure": "Clc1nc(NCc2cccnc2)nc(N2CCOCC2)n1", "TPP": "N", "PreQ1": "N", "SAM-II": "N"}
{"structure": "Cn1c(=O)n(C)c2cc(NC3=NS(=O)(=O)c4ccccc43)ccc21", "TPP": "N", "PreQ1": "N"}
{"structure": "COc1cccc(CC2CN(c3ncc(C)c(N)n3)CCO2)c1", "stereo": "centres unmarked", "TPP": "N", "PreQ1": "N", "SAM-II": "N"}
{"structure": "OC(CN=Cc1ccc(Br)cc1)c1ccccc1", "stereo": "centres unmarked", "TPP": "N", "PreQ1": "N", "SAM-II": "N"}
{"structure": "COc1ccc(-c2noc(NC3CCCCC3)n2)cc1OC", "TPP": "N", "PreQ1": "N"}
{"structure": "COc1ccc(CNc2nc3c(C)cc(C)cc3s2)cc1OC", "TPP": "N", "PreQ1": "N", "SAM-II": "N"}
{"structure": "Nc1ccnc(C(=O)O)c1", "TPP": "N", "PreQ1": "N", "SAM-II": "N"}
{"structure": "OCC1(O)CCCN(Cc2cc3ccccc3nc2N2CCOCC2)C1", "stereo": "centres unmarked", "TPP": "N", "PreQ1": "N", "SAM-II": "N"}
{"structure": "CCc1cc(Nc2cc(Cl)ccc2OC)n2ncnc2n1", "TPP": "N", "PreQ1": "N", "SAM-II": "N"}
{"structure": "CC(C)(O)CCc1ccc(CN2C[C@@H](CO)[C@H](CO)C2)cc1", "TPP": "N", "PreQ1": "N", "SAM-II": "N"}
{"structure": "Cn1nc2c(c1-c1nc(COc3cccc(F)c3)nn1CCO)CCCC2", "TPP": "N", "PreQ1": "N", "SAM-II": "N"}
{"structure": "O=c1c(O)c(-c2ccc(O)cc2)oc2cc(O)cc(O)c12", "TPP": "N", "PreQ1": "N", "SAM-II": "N"}
{"structure": "COc1cccc(NC(c2nnc(-c3ccccc3)o2)c2ccccc2F)c1", "stereo": "centres unmarked", "TPP": "N", "PreQ1": "N", "SAM-II": "N"}
{"structure": "COc1ccc(-c2noc(-c3nnn(-c4ccccc4C(F)(F)F)c3N)n2)cc1", "TPP": "N", "PreQ1": "N"}
{"structure": "CCNC1=C(C(N)=O)S(=O)(=O)c2ccccc21", "TPP": "N", "PreQ1": "N"}
{"structure": "COc1ccccc1Cc1nc(-c2ccncc2)n(CCO)n1", "TPP": "N", "PreQ1": "N", "SAM-II": "N"}
{"structure": "Cn1c(C2=C(N)N(c3ccc(Oc4ccccc4)cc3)CC2=O)nc2ccccc21", "TPP": "N", "PreQ1": "N"}
{"structure": "Nc1cccc(-c2csnn2)c1", "TPP": "N", "PreQ1": "N", "SAM-II": "N"}
{"structure": "Cc1cc(CNc2nc(-c3ccccc3)nc3c2CCNCC3)no1", "TPP": "N", "PreQ1": "N", "SAM-II": "N"}
{"structure": "O=C1c2cccc3cccc(c23)C(=O)N1CC1CCN(CC(O)COCc2ccc(Cl)cc2)CC1", "stereo": "centres unmarked", "TPP": "N", "PreQ1": "N", "SAM-II": "N"}
{"structure": "CCCN(CCC)CC(=O)N1CC(=O)Nc2ccccc21", "TPP": "N", "PreQ1": "N", "SAM-II": "N"}
{"structure": "NC1CCCNC1=O", "stereo": "centres unmarked", "TPP": "N", "PreQ1": "N", "SAM-II": "N"}
{"structure": "NNCCc1ccccc1", "TPP": "N", "PreQ1": "N", "SAM-II": "N"}
{"structure": "CN1CCN(CCCN2c3ccccc3Sc3ccc(C(F)(F)F)cc32)CC1", "TPP": "N", "PreQ1": "N", "SAM-II": "N"}
{"structure": "OCc1nc2nc(Cl)c(Cl)nc2[nH]1", "TPP": "N", "PreQ1": "N", "SAM-II": "N"}
{"structure": "CN1CCc2cc3c(cc2C1)OCO3", "TPP": "N", "PreQ1": "N", "SAM-II": "N"}
{"structure": "O=C1NC2(CCNCC2)C(=O)N1Cc1nc(C(F)(F)F)no1", "TPP": "N", "PreQ1": "N", "SAM-II": "N"}
{"structure": "Cc1ccccc1-n1c(/C=C\\c2ccccn2)nc2ccccc2c1=O", "TPP": "N", "PreQ1": "N", "SAM-II": "N"}
{"structure": "CCOC(=O)c1sc2nc(C)nc(Nc3ccc(C)cc3)c2c1C", "TPP": "N", "PreQ1": "N", "SAM-II": "N"}
{"structure": "Nc1nc(N)nc(C2C=CCCC2)n1", "stereo": "centres unmarked", "TPP": "N", "PreQ1": "N", "SAM-II": "N"}
{"structure": "Cc1nc(-n2nc(C)c(Cc3ccccc3Cl)c2C)sc1C(=O)N1CCN(CCO)CC1", "TPP": "N", "PreQ1": "N"}
{"structure": "O=C(O)Cc1sc(Nc2ccccc2)nc1-c1ccccc1", "TPP": "N", "PreQ1": "N", "SAM-II": "N"}

Repeated from the top, 3 entries:

{"structure": "Clc1ccc(Nc2nc(-c3ccccn3)cs2)nc1", "TPP": "N", "PreQ1": "N", "SAM-II": "N"}
{"structure": "Cc1ccccc1Nc1c(-c2ccco2)nc2ccc(Cl)cn12", "TPP": "N", "PreQ1": "N", "SAM-II": "N"}
{"structure": "COc1ccc(C2=C(C)C(Nc3cc(F)ccc3F)=NS2(=O)=O)cc1", "TPP": "N", "PreQ1": "N"}